Experimental data from patent publication US9345705B2, “Compositions and methods for treating cancer” (Merck Sharp & Dohme Corp., priority 2011, dated 2016).
Some results were stated once for a whole list of compounds, not compound by compound.

Test system: A2058 melanoma, HT-29 colorectal and LoVo colorectal cancer cells
Experiment: DNA damage (γH2AX) by flow cytometry, three cell lines
Assay type: cell-based, human
Conditions: all three cell lines, exposure up to 48 hours, same concentrations as growth assay

For `C=CCn1c(=O)c2cnc(Nc3ccc(N4CCN(C)CC4)cc3)nc2n1-c1cccc(C(C)(C)O)n1` [MK-1775, 2-allyl-1-[6-(1-hydroxy-1-methylethyl)pyridin-2-yl]-6-{[4-(4-methylpiperazin-1-yl)phenyl]amino}-1,2-dihydro-3H-pyrazolo[3,4-d]pyrimidin-3-one], the “treated cells positive for γH2AX” value was ≤ 10%.
